Data taken from PMC8225803.
Results are given in words; binding and its absence hold for the method and conditions named. In cells and extracts the contact can be indirect. Here binding means that the protein was enriched with, or labelled near, the bait; the list need not be complete.

The chains behind the UniProt entries cited, without tags or fusion partners.
UniProt P12270: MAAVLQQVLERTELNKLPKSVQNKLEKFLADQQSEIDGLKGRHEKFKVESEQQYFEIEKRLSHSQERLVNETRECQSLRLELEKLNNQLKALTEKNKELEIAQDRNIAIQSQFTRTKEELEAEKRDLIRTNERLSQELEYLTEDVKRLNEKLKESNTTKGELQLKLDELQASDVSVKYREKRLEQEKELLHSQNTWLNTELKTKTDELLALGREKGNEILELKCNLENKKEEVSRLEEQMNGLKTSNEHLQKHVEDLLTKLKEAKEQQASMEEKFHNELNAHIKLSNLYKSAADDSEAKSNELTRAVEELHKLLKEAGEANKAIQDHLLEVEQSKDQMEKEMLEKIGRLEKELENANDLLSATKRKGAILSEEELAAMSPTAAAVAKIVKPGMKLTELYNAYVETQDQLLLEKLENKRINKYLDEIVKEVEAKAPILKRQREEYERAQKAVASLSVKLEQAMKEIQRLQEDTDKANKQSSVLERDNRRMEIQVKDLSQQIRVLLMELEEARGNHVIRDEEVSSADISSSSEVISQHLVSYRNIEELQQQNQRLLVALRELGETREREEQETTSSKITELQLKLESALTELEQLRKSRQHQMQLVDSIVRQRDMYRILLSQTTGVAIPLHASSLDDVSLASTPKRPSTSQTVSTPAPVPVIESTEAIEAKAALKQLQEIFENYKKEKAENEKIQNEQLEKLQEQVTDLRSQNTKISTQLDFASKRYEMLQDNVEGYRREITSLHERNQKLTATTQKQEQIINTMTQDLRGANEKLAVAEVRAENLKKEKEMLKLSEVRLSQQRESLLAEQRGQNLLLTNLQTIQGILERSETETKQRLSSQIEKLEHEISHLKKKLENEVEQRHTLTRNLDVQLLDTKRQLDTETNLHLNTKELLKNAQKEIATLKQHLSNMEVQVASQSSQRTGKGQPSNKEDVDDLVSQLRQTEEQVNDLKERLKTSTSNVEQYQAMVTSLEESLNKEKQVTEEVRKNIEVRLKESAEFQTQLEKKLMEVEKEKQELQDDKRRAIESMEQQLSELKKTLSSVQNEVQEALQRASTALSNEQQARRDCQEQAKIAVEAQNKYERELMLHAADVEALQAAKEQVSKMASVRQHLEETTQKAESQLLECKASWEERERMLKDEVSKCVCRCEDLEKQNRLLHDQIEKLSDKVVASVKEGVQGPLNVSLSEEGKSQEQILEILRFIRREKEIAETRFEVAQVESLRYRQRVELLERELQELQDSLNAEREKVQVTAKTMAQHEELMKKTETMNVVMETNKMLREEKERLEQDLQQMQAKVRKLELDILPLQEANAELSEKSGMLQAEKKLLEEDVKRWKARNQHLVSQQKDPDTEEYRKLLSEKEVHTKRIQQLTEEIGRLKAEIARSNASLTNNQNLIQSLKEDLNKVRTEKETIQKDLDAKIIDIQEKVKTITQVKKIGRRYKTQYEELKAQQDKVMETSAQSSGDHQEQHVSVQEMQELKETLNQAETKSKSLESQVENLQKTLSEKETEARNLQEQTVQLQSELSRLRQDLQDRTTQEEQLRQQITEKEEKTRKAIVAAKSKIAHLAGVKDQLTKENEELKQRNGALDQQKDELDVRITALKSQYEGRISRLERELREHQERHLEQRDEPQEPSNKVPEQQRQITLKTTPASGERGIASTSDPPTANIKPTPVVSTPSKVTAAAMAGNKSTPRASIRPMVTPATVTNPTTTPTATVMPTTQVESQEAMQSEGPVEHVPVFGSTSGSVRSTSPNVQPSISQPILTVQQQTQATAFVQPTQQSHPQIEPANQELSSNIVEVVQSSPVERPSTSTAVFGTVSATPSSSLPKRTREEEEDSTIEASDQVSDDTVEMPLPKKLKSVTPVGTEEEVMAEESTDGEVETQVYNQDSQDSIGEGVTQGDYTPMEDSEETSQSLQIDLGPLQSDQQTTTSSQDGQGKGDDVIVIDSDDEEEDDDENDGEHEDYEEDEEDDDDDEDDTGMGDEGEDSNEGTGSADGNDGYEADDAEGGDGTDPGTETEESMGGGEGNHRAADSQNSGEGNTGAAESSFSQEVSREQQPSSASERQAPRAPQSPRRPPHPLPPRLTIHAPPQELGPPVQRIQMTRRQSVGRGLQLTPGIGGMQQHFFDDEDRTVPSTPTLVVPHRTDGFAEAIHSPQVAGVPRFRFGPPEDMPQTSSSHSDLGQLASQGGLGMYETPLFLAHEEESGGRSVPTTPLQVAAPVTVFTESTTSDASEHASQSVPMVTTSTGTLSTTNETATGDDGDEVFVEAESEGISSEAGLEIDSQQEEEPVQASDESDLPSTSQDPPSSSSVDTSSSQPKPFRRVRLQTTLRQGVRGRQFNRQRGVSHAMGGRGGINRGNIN
UniProt O60318: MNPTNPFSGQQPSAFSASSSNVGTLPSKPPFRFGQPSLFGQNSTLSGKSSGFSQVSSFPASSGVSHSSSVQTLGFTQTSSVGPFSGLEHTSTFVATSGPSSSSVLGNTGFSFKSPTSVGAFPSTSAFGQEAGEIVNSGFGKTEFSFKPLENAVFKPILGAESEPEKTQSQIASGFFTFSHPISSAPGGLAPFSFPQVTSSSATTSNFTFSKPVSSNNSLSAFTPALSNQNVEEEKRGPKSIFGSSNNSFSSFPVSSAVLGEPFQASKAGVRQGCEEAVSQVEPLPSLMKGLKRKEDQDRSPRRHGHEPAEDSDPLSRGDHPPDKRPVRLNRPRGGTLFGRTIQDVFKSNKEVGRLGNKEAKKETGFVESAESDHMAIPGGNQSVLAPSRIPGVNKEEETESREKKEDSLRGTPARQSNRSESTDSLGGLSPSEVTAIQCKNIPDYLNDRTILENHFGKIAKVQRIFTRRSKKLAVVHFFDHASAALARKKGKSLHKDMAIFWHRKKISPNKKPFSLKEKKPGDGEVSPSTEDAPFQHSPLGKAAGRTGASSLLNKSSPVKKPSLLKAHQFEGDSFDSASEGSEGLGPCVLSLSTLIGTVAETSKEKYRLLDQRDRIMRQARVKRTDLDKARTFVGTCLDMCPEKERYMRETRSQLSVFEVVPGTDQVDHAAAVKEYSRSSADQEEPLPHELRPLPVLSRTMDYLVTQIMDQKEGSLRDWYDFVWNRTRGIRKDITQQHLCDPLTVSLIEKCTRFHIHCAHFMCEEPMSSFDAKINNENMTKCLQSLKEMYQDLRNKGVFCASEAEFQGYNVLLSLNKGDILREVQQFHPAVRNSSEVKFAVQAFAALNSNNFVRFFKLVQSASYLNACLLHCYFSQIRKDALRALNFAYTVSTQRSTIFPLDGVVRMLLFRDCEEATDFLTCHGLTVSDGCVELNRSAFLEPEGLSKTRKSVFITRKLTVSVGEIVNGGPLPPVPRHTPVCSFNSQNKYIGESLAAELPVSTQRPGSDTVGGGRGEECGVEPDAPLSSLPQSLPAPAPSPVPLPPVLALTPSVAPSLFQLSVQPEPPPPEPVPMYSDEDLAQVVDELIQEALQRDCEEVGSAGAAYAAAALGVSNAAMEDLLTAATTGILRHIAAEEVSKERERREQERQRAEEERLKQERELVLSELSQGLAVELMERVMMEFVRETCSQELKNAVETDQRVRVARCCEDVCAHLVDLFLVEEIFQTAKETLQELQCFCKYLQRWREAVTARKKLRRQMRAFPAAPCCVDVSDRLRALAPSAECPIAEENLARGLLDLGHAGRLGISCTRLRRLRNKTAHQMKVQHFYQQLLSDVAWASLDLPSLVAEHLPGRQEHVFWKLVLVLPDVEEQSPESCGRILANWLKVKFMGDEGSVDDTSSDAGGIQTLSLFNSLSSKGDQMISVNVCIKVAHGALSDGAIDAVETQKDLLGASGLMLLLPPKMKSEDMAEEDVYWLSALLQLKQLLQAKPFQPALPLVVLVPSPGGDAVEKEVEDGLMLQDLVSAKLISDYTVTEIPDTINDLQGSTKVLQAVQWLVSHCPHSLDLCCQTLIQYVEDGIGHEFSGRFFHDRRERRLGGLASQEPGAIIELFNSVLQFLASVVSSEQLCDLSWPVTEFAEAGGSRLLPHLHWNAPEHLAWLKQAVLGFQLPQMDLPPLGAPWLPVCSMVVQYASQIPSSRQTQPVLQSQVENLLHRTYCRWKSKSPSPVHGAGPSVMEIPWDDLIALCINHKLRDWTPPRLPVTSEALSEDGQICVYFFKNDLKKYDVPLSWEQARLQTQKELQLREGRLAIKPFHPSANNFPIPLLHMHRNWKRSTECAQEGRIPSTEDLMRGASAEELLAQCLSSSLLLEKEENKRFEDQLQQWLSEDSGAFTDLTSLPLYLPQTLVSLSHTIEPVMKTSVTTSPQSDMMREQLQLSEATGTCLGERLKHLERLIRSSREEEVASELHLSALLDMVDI

Target: Tpr (translocated promoter region), endogenous (human (endogenous in U-2 OS)) (UniProt P12270)
Experiment: affinity purification with mass spectrometry; previously conducted label-free mass-spectrometry analysis without stable isotopes, in the same cell type (U-2 OS); bait and beads not told

binding: binds
Substance: Minichromosome maintenance complex component 3 associated protein (from UniProt O60318 1-1980)
